This note sets out measurements from paper PMC6880422.

Series [1] has as its target T1, His6-PhoP (Saccharopolyspora erythraea) (UniProt A4FQ02).
T1 sequence (looked up, limits assumed): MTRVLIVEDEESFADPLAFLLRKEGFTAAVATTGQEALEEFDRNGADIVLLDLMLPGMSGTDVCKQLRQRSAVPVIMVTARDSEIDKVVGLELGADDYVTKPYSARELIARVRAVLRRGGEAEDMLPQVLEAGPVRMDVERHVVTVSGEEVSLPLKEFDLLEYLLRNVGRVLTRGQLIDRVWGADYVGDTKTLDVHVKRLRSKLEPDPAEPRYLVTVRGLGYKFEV
The series is described as follows: EMSA. The following applies: EMSA: 10 mM Tris-HCl pH 8.0, 25 mM MgCl2, 50 mM NaCl, 1 mM DTT, 1 mM EDTA, 0.01% NP-40, 50 ug/mL poly[d(I-C)], 10% glycerol, 25 C, 20 min, recombinant protein, protein details: His6, label: biotin (universal primer S10), probe letters rebuilt from the primers and the genome. In general terms: A gel shift assay detects complexes by their altered migration in electrophoresis.

For series [2], the target named is T1, His6-PhoP (Saccharopolyspora erythraea). Briefly: DNase I footprinting. The following applies: 4.8 ug PhoP, 200 ng probe in 40 uL; footprinting: Beyotime EMSA buffer, 25 C, 30 min; recombinant protein; protein details: His6; label: FAM (Methods also say biotin-labeled); probe letters rebuilt from the primers and the genome.

The exact form of at least one protein or probe is not confirmed. Protein sequences can lack the tags named with them.

On to “AGCCAGTGGCGATAAGATAGCGCGGAGCTTGCCGCCCAGCGCCTTGGCGTAGTCGCCCATGTGGCGTTTCTCCGTTTCATTCGCCCCGTCAGCCGATACCGGATGCCGAGGAGGCAAGTTCAGATCGATACGGAGAGTAATGTTCGCTCGCGAGCGTCACCAGGTCAAGTTGGTCTTCGTTCGCAGGGGGGCGAGTACCACCACACCACCCGGACGATTGACCCGCACGCATTGATAGCGTACAACGCGGGCCCGGCGGACACCCTGCGGTGCGGCTTTCACCAGCGGCACCGGCGCGGATCCTCCCGTCGCGGAACACCCGTCCTCACCAGCCGGCCGACAGCCGTCGGGAGAGGACCCCTTATCGCCACTGGCT (double strand) [PbldD]”, for which the binding result in series [1] (1 uM PhoP, 200-fold excess sperm DNA) is “binds”.
“AGCCAGTGGCGATAAGATAGCGCGGAGCTTGCCGCCCAGCGCCTTGGCGTAGTCGCCCATGTGGCGTTTCTCCGTTTCATTCGCCCCGTCAGCCGATACCGGATGCCGAGGAGGCAAGTTCAGATCGATACGGAGAGTAATGTTCGCTCGCGAGCGTCACCAGGTCAAGTTGGTCTTCGTTCGCAGGGGGGCGAGTACCACCACACCACCCGGACGATTGACCCGCACGCATTGATAGCGTACAACGCGGGCCCGGCGGACACCCTGCGGTGCGGCTTTCACCAGCGGCACCGGCGCGGATCCTCCCGTCGCGGAACACCCGTCCTCACCAGCCGGCCGACAGCCGTCGGGAGAGGACCCCTTATCGCCACTGGCT (double strand) [bldD promoter footprinting probe]”: the binding result in series [2] is “binds”.
As for “AGCCAGTGGCGATAAGCGAACACAAAGCACCAGGCCGGGTCGAAGACGTCCCGGCGCCCTACACCAGTCTGCGTTGCAGCGACTGCGGATGGATCGAGAAGAACTCACGCAAGAGCCAAGCTGAGTTCGTCTGCGTGTCCTGCGGTTTCACCTGCAACGCTGACCTGAACGCCTCGATCAACGTCGCGGCAGGACATGCCGGAGGGACAACAACGACCCCTGGTCGTTCACGTGTCCGTGAACCTCAACTCGCCCTCCGGTGAGTTGGAATCCCCCGCCTCCAGGCGAGGGAGGATGTCAAATCCAGAAGACACCGGTGGTCTTCGACGGGGAGCTGACGCTGCTGCCCATGGGGCAGTACCTGCACCTTATCGCCACTGGCT (double strand) [sace_0712 promoter]”, in series [1] (0.2-0.8 uM PhoP, poly[d(I-C)]), the binding result was “binds”.
